Assay: Isothermal titration calorimetry, binding to polyP
Settings: P700; HEPES buffer, pH 7.4, 25° C.
Description: The interaction of MPI and polyP was carried out at 25° C. using a MicroCal iTC200 calorimeter (MicroCal, Northampton, USA). Samples were prepared by making stock solutions of at least 100× the desired concentration at high volume and filtered using 0.2 µm filters (Millex, Merck Millipore Ltd). The pH of each solution was then measured to ensure that they were between 7.35 and 7.40. Prior to titration, stock solutions were diluted with the same filtered buffer and degassed. Titrations consisted of 25 consecutive injections of 1.5 μL volume and 5 sec duration each, with a 3 min interval between injections with only the first injection between 0.2 μL volume, not used as part of the fit. Heat of dilution was measured by injecting MPI solution into buffer alone and was subtracted from the experimental curves prior to data analysis. The resulting data were fit into a single set of identical sites model using the MicroCal ORIGIN software supplied with the instrument.

With CN(C)CCN(C)CCN(C)C [CBG I, N,NN′,N″,N″-pentamethyldiethylenetriamine] the “N (ratio of MPI to polyP)” value was 0.004.

From patent publication US20240398853A1, “MULTIVALENT POLYCATION INHIBITION OF POLYANIONS IN BLOOD” (The Regents of the University of Michigan, priority 2021, published 2024)
